Where a chain is given by its changes, count along the chain named. Results are given in words; binding and its absence hold for the method and conditions named. Some entries that bind do so weakly or less than the wild type.
Assays:
[1] = target: T1, bMERB_(V1041A_I1048A) (human) (UniProt Q8TDZ2); assay: SEC
T1 sequence: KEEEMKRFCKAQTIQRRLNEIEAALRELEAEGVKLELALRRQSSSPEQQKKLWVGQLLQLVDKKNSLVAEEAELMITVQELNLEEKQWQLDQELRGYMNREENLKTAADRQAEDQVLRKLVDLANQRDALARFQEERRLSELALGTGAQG

The chains behind the UniProt entries cited, without tags or fusion partners. Where a name states a change or a piece, a line headed by the entry shows the natural chain unless it says otherwise. Residues count along the entry.
UniProt P61006, 1-176: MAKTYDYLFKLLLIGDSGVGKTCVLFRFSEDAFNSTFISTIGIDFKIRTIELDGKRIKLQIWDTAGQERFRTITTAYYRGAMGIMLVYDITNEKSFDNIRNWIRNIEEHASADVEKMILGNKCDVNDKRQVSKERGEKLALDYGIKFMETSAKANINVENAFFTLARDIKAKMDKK
UniProt P61026, 1-175: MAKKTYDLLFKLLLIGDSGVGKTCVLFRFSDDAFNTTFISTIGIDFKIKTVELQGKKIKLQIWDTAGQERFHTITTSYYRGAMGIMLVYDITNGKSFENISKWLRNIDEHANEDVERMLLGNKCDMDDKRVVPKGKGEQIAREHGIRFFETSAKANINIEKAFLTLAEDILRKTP

[2] = target: Mical1 MO (residues 1-488) (human) (UniProt Q8TDZ2); assay: SEC-MALS
[3] = target: Mical1 MO-CH (residues 1-615) (human) (UniProt Q8TDZ2); assay: SEC-MALS
[4] = target: T2, full-length Mical1 (human), Q8TDZ2; assay: SEC-MALS; details: remark: other sources report otherwise
T2 chain: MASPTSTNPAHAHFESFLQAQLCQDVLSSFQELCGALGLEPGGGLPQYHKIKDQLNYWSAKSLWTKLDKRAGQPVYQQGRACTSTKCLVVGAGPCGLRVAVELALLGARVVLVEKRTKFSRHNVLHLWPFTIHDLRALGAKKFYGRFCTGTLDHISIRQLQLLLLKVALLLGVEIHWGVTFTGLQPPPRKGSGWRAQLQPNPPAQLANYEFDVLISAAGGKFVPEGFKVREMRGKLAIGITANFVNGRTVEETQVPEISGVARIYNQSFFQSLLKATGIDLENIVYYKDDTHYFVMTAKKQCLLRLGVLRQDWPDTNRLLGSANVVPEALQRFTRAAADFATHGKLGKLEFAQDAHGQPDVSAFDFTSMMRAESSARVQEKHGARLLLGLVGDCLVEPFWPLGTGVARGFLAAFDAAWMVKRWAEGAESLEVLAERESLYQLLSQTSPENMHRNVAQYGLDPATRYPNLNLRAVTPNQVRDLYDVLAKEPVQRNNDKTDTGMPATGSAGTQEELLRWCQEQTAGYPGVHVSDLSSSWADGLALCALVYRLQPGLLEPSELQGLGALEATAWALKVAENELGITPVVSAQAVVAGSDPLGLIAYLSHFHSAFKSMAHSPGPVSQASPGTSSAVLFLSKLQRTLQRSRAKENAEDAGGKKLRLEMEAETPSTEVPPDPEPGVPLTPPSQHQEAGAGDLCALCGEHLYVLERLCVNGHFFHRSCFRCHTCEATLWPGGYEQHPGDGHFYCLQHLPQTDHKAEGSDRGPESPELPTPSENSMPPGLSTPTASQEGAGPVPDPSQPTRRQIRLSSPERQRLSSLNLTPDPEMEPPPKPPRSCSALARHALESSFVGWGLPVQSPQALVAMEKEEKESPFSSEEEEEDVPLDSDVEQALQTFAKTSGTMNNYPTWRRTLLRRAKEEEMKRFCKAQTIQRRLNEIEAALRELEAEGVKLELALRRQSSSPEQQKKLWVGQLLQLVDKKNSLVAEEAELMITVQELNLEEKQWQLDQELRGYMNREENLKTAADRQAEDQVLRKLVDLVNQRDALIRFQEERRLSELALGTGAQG

[5] = target: T3, Mical1 MO-CH-LIM (residues 1-781) (human) (UniProt Q8TDZ2); assay: ITC
T3 sequence: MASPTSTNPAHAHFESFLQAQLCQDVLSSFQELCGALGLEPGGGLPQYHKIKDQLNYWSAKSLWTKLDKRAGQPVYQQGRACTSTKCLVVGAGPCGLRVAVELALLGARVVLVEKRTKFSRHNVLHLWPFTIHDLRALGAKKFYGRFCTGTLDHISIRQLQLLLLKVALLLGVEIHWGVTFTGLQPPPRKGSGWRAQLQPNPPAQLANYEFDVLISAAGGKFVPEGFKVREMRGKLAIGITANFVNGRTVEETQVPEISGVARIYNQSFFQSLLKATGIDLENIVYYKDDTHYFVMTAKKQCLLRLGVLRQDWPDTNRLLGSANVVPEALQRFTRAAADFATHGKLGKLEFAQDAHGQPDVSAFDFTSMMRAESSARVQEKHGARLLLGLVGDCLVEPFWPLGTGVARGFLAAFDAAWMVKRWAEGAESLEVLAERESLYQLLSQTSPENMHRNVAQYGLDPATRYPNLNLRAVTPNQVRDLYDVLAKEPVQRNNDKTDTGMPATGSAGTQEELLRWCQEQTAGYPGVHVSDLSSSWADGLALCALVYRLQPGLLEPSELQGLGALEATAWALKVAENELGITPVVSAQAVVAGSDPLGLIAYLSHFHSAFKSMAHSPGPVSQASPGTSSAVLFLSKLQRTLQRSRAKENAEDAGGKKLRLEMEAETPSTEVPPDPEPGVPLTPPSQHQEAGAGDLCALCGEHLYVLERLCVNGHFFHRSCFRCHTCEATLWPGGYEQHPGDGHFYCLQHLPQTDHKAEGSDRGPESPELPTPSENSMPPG

[6] = target: T3, Mical1 MO-CH-LIM (residues 1-781) (human); assay: SEC-MALS
[7] = target: Mical1 bMERB domain (residues 918-1067) (human) (UniProt Q8TDZ2); assay: SEC-MALS

Rab8a_(1-176) (from UniProt P61006 1-176)
binding [1]: binds weakly

Mical1 MO (residues 1-488) (from UniProt Q8TDZ2 1-488) (domain or fragment)
binding [2]: no binding (tested: 2 mg/mL injected)

Rab10_(1-175) (from UniProt P61026 1-175)
binding [1]: binds weakly

Mical1 MO-CH (residues 1-615) (from UniProt Q8TDZ2 1-615) (domain or fragment)
binding [3]: no binding (tested: 2 mg/mL injected)

B1: Rab13_(1-176) (protein, UniProt P51153 1-176)
chain: MAKAYDHLFKLLLIGDSGVGKTCLIIRFAEDNFNNTYISTIGIDFKIRTVDIEGKKIKLQVWDTAGQERFKTITTAYYRGAMGIILVYDITDEKSFENIQNWMKSIKENASAGVERLLLGNKCDMEAKRKVQKEQADKLAREHGIRFFETSAKSSMNVDEAFSSLARDILLKSGGR
binding [1]: binds weakly

B2: Rab15_(1-176) (natural protein)
chain: MAKQYDVLFRLLLIGDSGVGKTCLLCRFTDNEFHSSHISTIGVDFKMKTIEVDGIKVRIQIWDTAGQERYQTITKQYYRRAQGIFLVYDISSERSYQHIMKWVSDVDEYAPEGVQKILIGNKADEEQKRQVGREQGQQLAKEYGMDFYETSACTNLNIKESFTRLTELVLQAHRKE
binding [1]: binds weakly

B3: full-length Mical1, Q8TDZ2 1-1067 (enzyme)
chain: T2 chain
binding [4]: no binding (tested: 2 mg/mL injected)

B4: bMERB_(V978A_V985A) (domain or fragment)
chain: T1 sequence with V61A, V68A, A124V, A131I
binding [5]: no binding

B5: Mical1 MO-CH-LIM (residues 1-781) (domain or fragment, UniProt Q8TDZ2 1-781)
chain: T3 sequence
binding [6]: no binding (tested: 2 mg/mL injected)

B6: Mical1 bMERB domain (residues 918-1067) (domain or fragment)
chain: T1 sequence with A124V, A131I
binding [7]: no binding (tested: 2 mg/mL injected)

Reference: publication doi:10.1101/2024.06.17.599268 (bioRxiv, 2024)
